Data reported in article PMC9004082.
No constants are given. Whether binding was seen depends on the method and setting. For some of these results: Binding seen in cells or lysates may run through a third protein. Some results given as binding are weak or reduced against the parent protein; the word gives no strength. Sequences can lack the tags named with a protein.

Legend:
[1] = biological target: TDP-43 C-terminal fragment (aa 262-414) fused to mClover3 or mRuby3 (TDP-43 biosensor constructs); test: FRET or BRET; TDP-43 CTF-mClover3 and TDP-43 CTF-mRuby3 co-expressed in HEK293T biosensor cells; 50 nM TDP-43 PFF applied with Lipofectamine for 48 h; FRET by confocal microscopy and flow cytometry; also run with NMS-873 or VCP mutant expression
[2] = biological target: TDP-43 C-terminal fragment (aa 262-414) fused to mClover3 or mRuby3 (TDP-43 biosensor constructs); test: detergent fractionation by ultracentrifugation with immunoblot; lysates of TDP-43 biosensor cells treated with TDP-43 PFF for 48 h; RIPA soluble and insoluble fractions; anti-GFP blot of the tagged CTF
[3] = biological target: TDP-43 C-terminal fragment (aa 262-414) fused to mClover3 or mRuby3 (TDP-43 biosensor constructs); test: condition: only cells treated with TDP-43 monomer instead of PFF; detergent fractionation by ultracentrifugation with immunoblot; lysates of TDP-43 biosensor cells treated with TDP-43 monomer for 48 h; RIPA soluble and insoluble fractions; anti-GFP blot of the tagged CTF
[4] = biological target: TDP-43 C-terminal fragment (aa 262-414) fused to mClover3 or mRuby3 (TDP-43 biosensor constructs); test: condition: only cells without TDP-43 PFF (50 nM TDP-43 monomer or empty Lipofectamine); FRET or BRET; same TDP-43 biosensor cells without seeds: empty Lipofectamine or 50 nM TDP-43 monomer, 48 h

B1: TDP-43 C-terminal fragment (aa 262-414) fused to mClover3 or mRuby3 (TDP-43 biosensor constructs) (domain or fragment)
chain: MAKHNSNRQLERSGRFGGNPGGFGNQGGFGNSRGGGAGLGNNQGSNMGGGMNFGAFSINPAMMAAAQAALQSSWGMMGMLASQQNQSGPSGNNQNQGNMQREPNQAFGSGNNSYSGSNSGAAIGWGSASNAGSGSGFNGGFGSSMDSKSSGWGMGSAGSAAGSGEF
For B1, the binding [1] was “binds”, the binding [2] was “binds” and the binding [3] was “no binding”. For the same binder, the binding [4] was “no binding”.
